These are yes or no findings as the source states them, for the method shown. Some binding calls cover weakened binding; strength is not graded here.
B1: Humanized antibody FS002-C241 (antibody, human IgG1, lambda, V domains shown)
VH: RLQLQESGPGLVKPSETLSLTCTVSGGSISSSSYYWGWIRQPPGKGLEWIGSIYYSGSTYYNPSLKSRVTISVDTSKNQFSLKLSSVTAADTAVYYCARRYSYGRDAFDIWGQGTMVTVSS
VL: QSALTQPASVSGSPGQSITISCSGTSSDIGRYNYVSWYQQHPGKAPKLLIFDVSNRPSGVSNRFSGSKSGNTASLTISGLQAEDEADYYCSSYTSTVPYVFGTGTRVAVQG
B2: Humanized antibody FS002-C11 (antibody, human IgG1, kappa, V domains shown)
VH: RLQLQESGPRLVKPSETLSLTCSVSGGSISSRNHYWAWIRQPPGKGLEWIGYIYYSGSTYYNPSLKSRVTISVDTSKNQFSLKLSSVTAADTAVYYCARVGLLLRDFDYWGQGTLVTVSS
VL: DIQMIQSPSSVSASVGDRVTITCRASQGISNSLAWYQHKPGTTPKLLIYAASSLQGGVPSRFSGSSSETDFTLTISSLQPEDFATYYCQQANSFPITFGQGTRLDIKR
B3: Humanized antibody FS002-C15 (antibody, human IgG1, kappa, V domains shown)
VH: QLQLQESGPGLVKPSETLSLTCTVSGGSISSSSYYWGWIRQPPGKGLEWIGSIYYSGSTYYNPSLKSRVTISVDTSKNQFSLKLSSVTAADTAVYYCARLTIFGVVLYWGQGTLVTVSS
VL: EIVLTQSPATLSLSPGERATLSCQASQTFSDYLAWYQQKPGQAPRLLIYDASTRATGIPARFSGSGSGTDFTLTISSLEPEDFAVYYCQQRSHWPPGYTFGQGTRVEIKR
B4: Humanized antibody FS002-B27 (antibody, human IgG1, kappa, V domains shown)
VH: QVQLVQSGAEVKKPGSSVKVSCKASGGTFSSYAISWVRQAPGQGLEWMGRIIPILGIANYAQKFQGRVTITADKSTSTAYMELSSLRSEDTAVYYCARAEGSSWYYFDYWGQGTLVTVSS
VL: NIQLTQSPSSVSASVGDRVTITCRASQGFSRWLAWYQQKPGKAPKLLIYGASSLQSGVPSRFSGSGSGTDFTLTISSLQPEDFATYYCQQANSFPLTFGGGTKLEIKR
B5: Humanized antibody FS002-A10 (antibody, human IgG1, kappa, V domains shown)
VH: QVQLQQSGPGLVKPSQTLSLTCAISGDSVSSDSAAWNWIRQSPSRGLEWLGRTYYRSKWYNDYAVSVKSRITINPDTSKNQFSLQLNSVTSDDTAVYYCARGSWAAPWLWGQGTLVTVSS
VL: NIQLTQSPPFLSASVGDRVTITCRASQDISSFLAWYQQKPGKAPNLLIHAATTLQSGVPSRFSGSGSGTEFTLTISSLRPEDFATYYCQQLHTYPITFGQGTRLEIKR
B6: Humanized antibody FS002-C153 (antibody, human IgG1, lambda, V domains shown)
VH: QVQLQQWGAELVKPGASVKLSCTASGFNIKDTYMHWVKQRPEQGLEWIGRIDPANGNTKYDPKFQGKATITADTSSNTAYLQLSSLTSEDTAVYYCARSYYRYDGYFDVWGAGTMVTVSS
VL: QSALTQPASVSGSPGQSITISCTGTSSDVGGYNYVSWYQQHPGKAPKLMIYDVSNRPSGVSNRFSGSKSGNTASLTISGLQAEDEADYYCSSFTTITTRVFGGGTKLTVLG
B7: Humanized antibody FS002-A15 (antibody, human IgG1, kappa, V domains shown)
VH: RLQLQESGPGLVKPSQTLSLTCTVSGGSISSGGYYWSWIRQHPGKGLEWIGYIYYSGSTYYNPSLKSRVTISVDTSKNQFSLKLSSVTAADTAVYYCARATIYGYFDYWGQGTLVTVSS
VL: EIVLTQSPATLPLSPGERATLSCRASQSVGFYLAWYQQKPGQPPRLLFYDASKRATGIPARFSASGSGTDFTLTISGLEPEDFAVYYCQHRISWPLTFGQGTKVEVKR
B8: Humanized antibody FS002-A72 (antibody, human IgG1, kappa, V domains shown)
VH: QVQLVDSGGGLVQPGGSLRLSCVASGFAFSNYEMNWVRQAPGKGLEWVSYISSSSSYTNYADSVKGRFTISRDNAKNSLYLQMNSLRAEDTAVYYCARAQVRDAFDIWGQGTTVTVSS
VL: IVMTQSPVTLSVSPGDSATLSCRASQSVDKNLAWYQQKTGQAPRLLIYGAATRATGIPARFSGSGSGTEFTLTISSLRSEDFAVYYCQQYRNWPWTFGLGTKVEIKR
B9: Humanized antibody FS002-A36 (antibody, human IgG1, kappa, V domains shown)
VH: QVQLQESGPGLVKPSQTLSLTCTVSGGSISSGGYYWSWIRQHPGKGLEWIGYIYYSGSTYYNPSLKSRVTISVDTSKNQFSLKLSSVTAADTAVYYCARVRLLGGGFDIWGQGTTVTVSS
VL: EIVLTQSPATLSLSPGERATLSCRASQSVSTYLAWYQQKPGQAPRLLIYDTSIRATGIPARFSGSGSGTDFTLTISSLEPEDFAVYYCQQRSNWPLTFGGGTKVEIKR
B10: Humanized antibody FS002-A5 (antibody, human IgG1, kappa, V domains shown)
VH: QVQLQDSGPGLVKPSQTLSLTCTVSGGSISSGGYYWSWIRQHPGKGLEWIGYIYYSGSTYYNPSLKSRVTISVDTSKNQFSLKLSSVTAADTAVYYCARVPVPLVGAFDIWGQGTMVTVSS
VL: EIVLTQSPATLSLSPGERATLSCRASQSVSSNLGWYQQKPGQAPSLLIYGASNRATGIPARFSGSGSGTDFTLTISSLEPEDFAVYYCQQRDTWPLTFGGGTKVEIKR
B11: Humanized antibody FS002-C417 (antibody, human IgG1, kappa, V domains shown)
VH: EVQLVESGGVVVQPGGSLRLSCAASGFTFDDYTMHWVRQAPGKGLEWVSLISWDGGSTYYADSVKGRFTISRDNAKNTLYLQMNSLRAEDTAVYYCARDTGYAMDVWGQGTMVTVSS
VL: NIQMTQSPSSLSASVGDRVTITCRASQSISSYLNWYQQKPGKAPKLLIYAASSLQSGVPSRFSGSGSGTDFTLTISSLQPEDFASYYCQQSYSSWAFGQGTKVEIKR

Sequences of proteins named here, by UniProt entry; tags and fusion partners are left off. Residues count along the entry.
UniProt P17301, residues 30-1132: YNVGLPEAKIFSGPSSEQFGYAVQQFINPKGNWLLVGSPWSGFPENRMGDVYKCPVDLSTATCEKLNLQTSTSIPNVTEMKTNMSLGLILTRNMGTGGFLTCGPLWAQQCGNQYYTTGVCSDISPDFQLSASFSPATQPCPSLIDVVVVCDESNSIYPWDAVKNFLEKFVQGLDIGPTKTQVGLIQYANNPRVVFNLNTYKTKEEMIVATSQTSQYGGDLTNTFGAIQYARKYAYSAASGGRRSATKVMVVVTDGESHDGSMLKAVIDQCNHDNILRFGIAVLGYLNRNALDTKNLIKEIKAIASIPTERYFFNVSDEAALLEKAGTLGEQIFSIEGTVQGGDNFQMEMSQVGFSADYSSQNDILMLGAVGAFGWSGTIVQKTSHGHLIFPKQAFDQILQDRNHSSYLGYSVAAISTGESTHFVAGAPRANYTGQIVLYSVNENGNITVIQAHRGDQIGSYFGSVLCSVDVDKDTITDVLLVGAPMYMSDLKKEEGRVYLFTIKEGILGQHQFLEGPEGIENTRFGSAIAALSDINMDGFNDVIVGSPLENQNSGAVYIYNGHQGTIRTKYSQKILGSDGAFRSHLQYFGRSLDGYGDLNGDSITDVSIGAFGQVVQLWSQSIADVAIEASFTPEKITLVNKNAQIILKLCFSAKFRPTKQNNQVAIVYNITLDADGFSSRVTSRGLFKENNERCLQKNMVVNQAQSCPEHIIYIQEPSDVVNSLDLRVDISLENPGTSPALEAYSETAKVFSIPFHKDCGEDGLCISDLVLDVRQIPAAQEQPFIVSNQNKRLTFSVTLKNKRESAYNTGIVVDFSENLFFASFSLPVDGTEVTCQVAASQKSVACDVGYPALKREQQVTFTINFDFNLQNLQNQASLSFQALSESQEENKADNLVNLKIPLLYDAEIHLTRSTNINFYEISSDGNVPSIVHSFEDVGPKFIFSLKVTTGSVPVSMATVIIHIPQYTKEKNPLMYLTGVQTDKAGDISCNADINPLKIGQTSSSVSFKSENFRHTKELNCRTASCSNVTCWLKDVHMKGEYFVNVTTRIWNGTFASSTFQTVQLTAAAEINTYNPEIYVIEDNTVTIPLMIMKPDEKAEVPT

These binders were tested against ITGA2-His (human) (UniProt P17301) (assay: ELISA on coated ITGA2-His).

binding, binds:
B1, B2, B3, B4, B5, B6, B7, B8, B9, B10, B11

From patent publication EP4545563A1, “ANTIBODIES TARGETING ITGA2 AND ANTIBODY-DRUG […]” (Foreseen Technology (Beijing) Co., Ltd., priority 2022, dated 2024)
